Columns and labels:
[1] = biological target: prefusion RSV F (DS-Cav1) (Human respiratory syncytial virus A, UniProt P03420, I379V/M447V/S155C/S190F/S290C/V207L); assay type: binding, RSV strain A2; conditions: ITC, 25 °C, PBS 1% DMSO; mean ± s.d. (n = 2)
postfusion RSV F = conditions: ITC, control

Cc1ccc(CCCO)c(NCc2ccc3nc(NCCCN4CCOCC4)n(Cc4nc(C)ccc4O)c3c2)c1 [TMC-353121]
Kd [1]: 8.7 ± 10 nM | Stoichiometry of fusion inhibitor to trimeric prefusion RSV F [1]: 0.9 ± 0.014 | ΔH [1]: -16 ± 0.0 kcal/mol | −TΔS [1]: 4.8 ± 1.3 kcal/mol | Binding to postfusion RSV F (postfusion RSV F): no binding was detected
